Drawing on article PMC3668579, this text covers binding for one substance.

For this assay, the target named is ErpC (Borrelia burgdorferi) (UniProt Q44790). Kind of assay: SEC-MALS; 100 µg of sample injected onto a Superdex 200 10/300 column; Dawn Helios II and Optilab T-rEX; analysed with ASTRA; both purified. Background: SEC sorts molecules by how far they enter the pores of the column.

No constants are given. Whether binding was seen depends on the method and setting.

Consider ErpC (from UniProt Q44790 21-179), for which the binding result is “no binding (tested: 100 µg of sample injected)”.
